From the supplement of paper PMC8728848
This is one part of the list.

Legend:
Experiment in all cases: glycan array binding signal (z-score within array); higher = stronger binding
Settings in all cases: glycan notation: IUPAC condensed, linker removed
Neu5Ac(a2-3)GalNAc = molecular target: Neu5Ac(a2-3)GalNAc
Outline: (§1)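 The binding signal is a Z-score computed within each array. Data were drawn from 3228 arrays in the Consortium for Functional Glycomics database, restricted to those with a known protein sequence. Scores were averaged over arrays of the same protein sequence at different concentrations or buffers, and over linkers, and negative values can be taken as non-binding.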

[1] = molecular target: Neu5Ac(a2-3)GalNAc(b1-4)GlcNAc
Outline: as §1

[2] = molecular target: Neu5Ac(a2-3)[GalNAc(b1-4)]Gal(b1-4)Glc
Outline: as §1

[3] = molecular target: Neu5Ac(a2-3)[GalNAc(b1-4)]Gal(b1-4)GlcNAc
Outline: as §1

[4] = molecular target: Neu5Ac(a2-3)[GalNAc(b1-4)]Gal(b1-4)GlcNAc(b1-3)GalNAc
Outline: as §1

[5] = molecular target: Neu5Ac(a2-3)[Neu5Ac(a2-6)]GalNAc
Outline: as §1

Neu5Ac(a2-6)Gal = molecular target: Neu5Ac(a2-6)Gal
Outline: as §1

[6] = molecular target: Neu5Ac(a2-6)Gal(b1-3)GlcNAc(b1-3)[Gal(b1-4)GlcNAc(b1-6)]Gal(b1-4)Glc
Outline: as §1

Neu5Ac(a2-6)Gal(b1-4)Glc = molecular target: Neu5Ac(a2-6)Gal(b1-4)Glc
Outline: as §1

[7] = molecular target: Neu5Ac(a2-6)Gal(b1-4)GlcNAc
Outline: as §1

[8] = molecular target: Neu5Ac(a2-6)Gal(b1-4)GlcNAc(b1-2)Man
Outline: as §1

[9] = molecular target: Neu5Ac(a2-6)Gal(b1-4)GlcNAc(b1-2)Man(a1-3)Man(b1-4)GlcNAc(b1-4)GlcNAc
Outline: as §1

[10] = molecular target: Neu5Ac(a2-6)Gal(b1-4)GlcNAc(b1-2)Man(a1-3)[Gal(b1-4)GlcNAc(b1-2)Man(a1-6)]Man(b1-4)GlcNAc(b1-4)GlcNAc
Outline: as §1

[11] = molecular target: Neu5Ac(a2-6)Gal(b1-4)GlcNAc(b1-2)Man(a1-3)[GlcNAc(b1-2)Man(a1-6)]Man(b1-4)GlcNAc(b1-4)GlcNAc
Outline: as §1

[12] = molecular target: Neu5Ac(a2-6)Gal(b1-4)GlcNAc(b1-2)Man(a1-3)[GlcNAc(b1-4)][Neu5Ac(a2-6)Gal(b1-4)GlcNAc(b1-2)Man(a1-6)]Man(b1-4)GlcNAc(b1-4)GlcNAc
Outline: as §1

[13] = molecular target: Neu5Ac(a2-6)Gal(b1-4)GlcNAc(b1-2)Man(a1-3)[Man(a1-6)]Man(b1-4)GlcNAc(b1-4)GlcNAc
Outline: as §1

[14] = molecular target: Neu5Ac(a2-6)Gal(b1-4)GlcNAc(b1-2)Man(a1-3)[Neu5Ac(a2-3)Gal(b1-4)GlcNAc(b1-2)Man(a1-6)]Man(b1-4)GlcNAc(b1-4)GlcNAc
Outline: as §1

[15] = molecular target: Neu5Ac(a2-6)Gal(b1-4)GlcNAc(b1-2)Man(a1-3)[Neu5Ac(a2-6)Gal(b1-4)GlcNAc(b1-2)Man(a1-6)]Man(b1-4)GlcNAc(b1-4)GlcNAc
Outline: as §1

[16] = molecular target: Neu5Ac(a2-6)Gal(b1-4)GlcNAc(b1-2)Man(a1-3)[Neu5Ac(a2-6)Gal(b1-4)GlcNAc(b1-2)Man(a1-6)]Man(b1-4)GlcNAc(b1-4)[Fuc(a1-6)]GlcNAc
Outline: as §1

[17] = molecular target: Neu5Ac(a2-6)Gal(b1-4)GlcNAc(b1-2)Man(a1-6)Man(b1-4)GlcNAc(b1-4)GlcNAc
Outline: as §1

[18] = molecular target: Neu5Ac(a2-6)Gal(b1-4)GlcNAc(b1-2)Man(a1-6)[Gal(b1-4)GlcNAc(b1-2)Man(a1-3)]Man(b1-4)GlcNAc(b1-4)GlcNAc
Outline: as §1

[19] = molecular target: Neu5Ac(a2-6)Gal(b1-4)GlcNAc(b1-2)Man(a1-6)[GlcNAc(b1-2)Man(a1-3)]Man(b1-4)GlcNAc(b1-4)GlcNAc
Outline: as §1

[20] = molecular target: Neu5Ac(a2-6)Gal(b1-4)GlcNAc(b1-2)Man(a1-6)[Man(a1-3)]Man(b1-4)GlcNAc(b1-4)GlcNAc
Outline: as §1

[21] = molecular target: Neu5Ac(a2-6)Gal(b1-4)GlcNAc(b1-2)[Neu5Ac(a2-6)Gal(b1-4)GlcNAc(b1-4)]Man(a1-3)[GlcNAc(b1-4)][Neu5Ac(a2-6)Gal(b1-4)GlcNAc(b1-2)[Neu5Ac(a2-6)Gal(b1-4)GlcNAc(b1-6)]Man(a1-6)]Man(b1-4)GlcNAc(b1-4)GlcNAc
Outline: as §1

[22] = molecular target: Neu5Ac(a2-6)Gal(b1-4)GlcNAc(b1-2)[Neu5Ac(a2-6)Gal(b1-4)GlcNAc(b1-4)]Man(a1-3)[GlcNAc(b1-4)][Neu5Ac(a2-6)Gal(b1-4)GlcNAc(b1-4)Man(a1-6)]Man(b1-4)GlcNAc(b1-4)GlcNAc
Outline: as §1

[23] = molecular target: Neu5Ac(a2-6)Gal(b1-4)GlcNAc(b1-2)[Neu5Ac(a2-6)Gal(b1-4)GlcNAc(b1-6)]Man(a1-6)[Neu5Ac(a2-6)Gal(b1-4)GlcNAc(b1-2)Man(a1-3)][GlcNAc(b1-4)]Man(b1-4)GlcNAc(b1-4)GlcNAc
Outline: as §1

[24] = molecular target: Neu5Ac(a2-6)Gal(b1-4)GlcNAc(b1-3)Gal(b1-3)GlcNAc
Outline: as §1

[25] = molecular target: Neu5Ac(a2-6)Gal(b1-4)GlcNAc(b1-3)Gal(b1-4)GlcNAc
Outline: as §1

[26] = molecular target: Neu5Ac(a2-6)Gal(b1-4)GlcNAc(b1-3)Gal(b1-4)GlcNAc(b1-2)Man(a1-3)[Neu5Ac(a2-6)Gal(b1-4)GlcNAc(b1-3)Gal(b1-4)GlcNAc(b1-2)Man(a1-6)]GalNAc
Outline: as §1

[27] = molecular target: Neu5Ac(a2-6)Gal(b1-4)GlcNAc(b1-3)Gal(b1-4)GlcNAc(b1-3)Gal(b1-4)GlcNAc
Outline: as §1

[28] = molecular target: Neu5Ac(a2-6)Gal(b1-4)GlcNAc(b1-3)Gal(b1-4)GlcNAc(b1-3)Gal(b1-4)GlcNAc(b1-2)Man(a1-3)[Neu5Ac(a2-6)Gal(b1-4)GlcNAc(b1-3)Gal(b1-4)GlcNAc(b1-3)Gal(b1-4)GlcNAc(b1-2)Man(a1-6)]GalNAc
Outline: as §1

[29] = molecular target: Neu5Ac(a2-6)Gal(b1-4)GlcNAc(b1-3)Gal(b1-4)GlcNAc(b1-3)GalNAc
Outline: as §1

[30] = molecular target: Neu5Ac(a2-6)Gal(b1-4)GlcNAc(b1-3)Gal(b1-4)GlcNAc(b1-3)[Neu5Ac(a2-6)Gal(b1-4)GlcNAc(b1-3)Gal(b1-4)GlcNAc(b1-6)]GalNAc
Outline: as §1

[31] = molecular target: Neu5Ac(a2-6)Gal(b1-4)GlcNAc(b1-3)Gal(b1-4)GlcNAc(b1-6)[Gal(b1-3)]GalNAc
Outline: as §1

[32] = molecular target: Neu5Ac(a2-6)Gal(b1-4)GlcNAc(b1-3)Gal(b1-4)[Fuc(a1-3)]GlcNAc(b1-3)Gal(b1-4)[Fuc(a1-3)]GlcNAc
Outline: as §1

[33] = molecular target: Neu5Ac(a2-6)Gal(b1-4)GlcNAc(b1-3)GalNAc
Outline: as §1

[34] = molecular target: Neu5Ac(a2-6)Gal(b1-4)GlcNAc(b1-3)[Neu5Ac(a2-6)Gal(b1-4)GlcNAc(b1-6)]GalNAc
Outline: as §1

B1: SJCP1084 (Schistosoma japonicum) (protein)
chain: MRIINLVIISTALLLINLLQTKSQANGEDTKNGTPDDPGLTKSTELKVEVQALLKDKKTNMRVKWNENLLDNTKPEYHNLRDEACELLLQIVRSVVPLSQDDGECKDVTFTKYVVGTKDGAVNVKLTITFKDSVAINQKPMDLKLKLENDFKNLQSESTLKATKPTFTVKVEKRLIPISKPQTTPPTTAKNDASKENVGDIGGEDSTVPTAAPATAASANEEKDEGDKDNKDSQHPNVLTSNVNDRNLIIALVALMILAIGVALTAAVKQR
glycan array binding signal (z-score) (Neu5Ac(a2-3)GalNAc): -0.344
glycan array binding signal (z-score) [1]: -0.229
glycan array binding signal (z-score) [2]: -0.474
glycan array binding signal (z-score) [3]: -0.641
glycan array binding signal (z-score) [4]: -0.221
glycan array binding signal (z-score) [5]: -0.81
glycan array binding signal (z-score) (Neu5Ac(a2-6)Gal): 0.41
glycan array binding signal (z-score) [6]: -0.092
glycan array binding signal (z-score) (Neu5Ac(a2-6)Gal(b1-4)Glc): -0.667
glycan array binding signal (z-score) [7]: -0.162
glycan array binding signal (z-score) [8]: 0.296
glycan array binding signal (z-score) [9]: -0.358
glycan array binding signal (z-score) [10]: -0.083
glycan array binding signal (z-score) [11]: 1.47
glycan array binding signal (z-score) [12]: 0.136
glycan array binding signal (z-score) [13]: -0.25
glycan array binding signal (z-score) [14]: 0.504
glycan array binding signal (z-score) [15]: 0.066
glycan array binding signal (z-score) [16]: 1.05
glycan array binding signal (z-score) [17]: -0.756
glycan array binding signal (z-score) [18]: 0.299
glycan array binding signal (z-score) [19]: 0.744
glycan array binding signal (z-score) [20]: 0.566
glycan array binding signal (z-score) [21]: -0.658
glycan array binding signal (z-score) [22]: -0.623
glycan array binding signal (z-score) [23]: -0.863
glycan array binding signal (z-score) [24]: -1.27
glycan array binding signal (z-score) [25]: -0.877
glycan array binding signal (z-score) [26]: 1.12
glycan array binding signal (z-score) [27]: -0.373
glycan array binding signal (z-score) [28]: 2.19
glycan array binding signal (z-score) [29]: -1.16
glycan array binding signal (z-score) [30]: 1.02
glycan array binding signal (z-score) [31]: -0.586
glycan array binding signal (z-score) [32]: -0.346
glycan array binding signal (z-score) [33]: -0.291
glycan array binding signal (z-score) [34]: -0.669
